Data: article PMC3864901, “A Conserved Sequence Extending Motif III of the Motor Domain in the Snf2-Family DNA Translocase Rad54 Is Critical for ATPase Activity” (PLoS ONE, 2013)
Numbering of substitutions follows the chain as printed. No constants are given. Whether binding was seen depends on the method and setting. For part of these data: In cells and extracts the contact can be indirect. Some results given as binding are weak or reduced against the parent protein; the word gives no strength. Tags and fused reporters may be left off the sequences shown.

The chains behind the UniProt entries cited, without tags or fusion partners.
UniProt P15873: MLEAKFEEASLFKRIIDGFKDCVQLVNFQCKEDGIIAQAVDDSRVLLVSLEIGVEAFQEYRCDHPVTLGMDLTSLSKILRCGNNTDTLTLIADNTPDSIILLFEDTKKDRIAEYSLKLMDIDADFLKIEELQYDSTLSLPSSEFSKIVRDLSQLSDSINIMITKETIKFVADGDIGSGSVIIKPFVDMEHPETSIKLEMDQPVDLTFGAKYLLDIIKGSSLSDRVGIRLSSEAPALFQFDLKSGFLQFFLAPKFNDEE

Columns and labels:
[1] = molecular target: T1, Rad54 (two-hybrid fusion) (Saccharomyces cerevisiae) (UniProt P32863); assay: two-hybrid; two-hybrid analysis, data not shown
T1 sequence: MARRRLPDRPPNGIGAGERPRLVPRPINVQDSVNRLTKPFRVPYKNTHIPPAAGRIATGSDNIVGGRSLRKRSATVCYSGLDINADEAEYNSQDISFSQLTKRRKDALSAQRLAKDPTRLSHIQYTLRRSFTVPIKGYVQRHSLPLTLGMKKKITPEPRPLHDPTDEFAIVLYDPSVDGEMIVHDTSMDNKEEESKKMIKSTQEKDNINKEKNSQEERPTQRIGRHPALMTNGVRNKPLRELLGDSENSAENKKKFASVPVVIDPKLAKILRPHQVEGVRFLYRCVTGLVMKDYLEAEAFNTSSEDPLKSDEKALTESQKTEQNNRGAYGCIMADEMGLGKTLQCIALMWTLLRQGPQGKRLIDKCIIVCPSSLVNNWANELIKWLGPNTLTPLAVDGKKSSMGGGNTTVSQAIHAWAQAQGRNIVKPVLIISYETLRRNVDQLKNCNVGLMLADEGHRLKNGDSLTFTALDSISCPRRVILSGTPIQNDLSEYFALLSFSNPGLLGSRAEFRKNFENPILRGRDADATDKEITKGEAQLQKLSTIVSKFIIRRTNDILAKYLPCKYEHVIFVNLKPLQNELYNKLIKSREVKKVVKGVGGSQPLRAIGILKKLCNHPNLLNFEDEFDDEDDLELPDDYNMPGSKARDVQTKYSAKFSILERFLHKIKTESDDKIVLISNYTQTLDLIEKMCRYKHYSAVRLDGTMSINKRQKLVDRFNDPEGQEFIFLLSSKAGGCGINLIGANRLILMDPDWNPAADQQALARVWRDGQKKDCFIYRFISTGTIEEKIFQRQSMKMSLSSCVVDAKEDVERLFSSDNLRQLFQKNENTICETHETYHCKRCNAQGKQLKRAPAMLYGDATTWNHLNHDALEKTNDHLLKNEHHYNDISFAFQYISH

[2] = molecular target: T2, GST-Rad54 (wild type Saccharomyces cerevisiae Rad54) (Saccharomyces cerevisiae) (UniProt P32863); assay: pull-down; purified GST-Rad54 (or GST) incubated with PCNA bacterial extract in 25 mM Tris-HCl pH 7.5, 50 mM NaCl, 1 mM DTT, 10% glycerol, 0.05% NP-40, room temperature 1 hr; captured on glutathione sepharose; washed with 100 mM NaCl; Coomassie or immunoblot; also under increased ionic strength (Fig. S1); only the target purified
T2 sequence: T1 sequence

[3] = molecular target: T3, GST-Rad54-Y494A-F495A (Saccharomyces cerevisiae) (UniProt P32863); assay: as above
T3 sequence: T1 sequence with Y494A, F495A

| binding [1] | binding [2] | binding [3] | Substance |
| --- | --- | --- | --- |
| binds |  |  | PCNA (two-hybrid fusion) (from UniProt P15873 1-258) |
|  | binds | binds | yeast PCNA in bacterial extract (from UniProt P15873 1-258) |
